These results are taken from PubChem BioAssay AID2685 (National Center for Advancing Translational Sciences (NCATS), 2010).

A short description of the assay: qHTS Assay for Lipid Storage Modulators in Drosophila S3 Cells.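 On cell number change: cells counted by Cell Tracker Red CMTPX staining in the red channel.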 The conditions noted are these: BODIPY lipid droplet fluorescence, 18-24 h; for cell number change: measured here: cell count max response, cells fed with added oleic acid. The essentials: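 Laser-scanning cytometry quantifies lipid droplet accumulation (500–530 nm total intensity; droplet/cell object ratio) in oleic acid-fed (400 uM added) Drosophila S3 cells treated with a concentration series. 20 uM Triacsin C defined 100% inhibition.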
(qHTS replaces the single test concentration by a dilution series.)

Setting [1] is: measured here: lipid fluorescence (Fed channel) AC50, cells fed with added oleic acid.
[2] abbreviates: measured here: cell number channel AC50, cells fed with added oleic acid.

Broadly, the AC50 is the concentration giving half of the maximal activity seen.

Some of the results follow. Shown are side measurements of this screen, not its main read-out; they come without a call. The list favours compounds with an active or inconclusive main result. Words in brackets tell the shape of the fitted curve; partial curves, single points and poor fits give uncertain potencies.

Turning to `COc1ccc(CC(NC(C)=O)C(=O)NC2CCN(S(=O)(=O)c3ccccc3)CC2)c(OC)c1` (stereo not drawn), the cell number change is 23.5%. Also, under setting [1], the AC50 was 6.51 µM [rising, single point]. As for `CCOC(=O)c1c(C)[nH]c(C(=O)OCC(=O)N2CCc3ccccc32)c1C`, the cell number change was 47.2%. The AC50 under setting [2] is 29.1 µM [rising, single point]. Moreover, the AC50 under setting [1] was 0.092 µM [rising, full curve, poor fit].

As for `CC(=O)C(=Cc1ccc(C(=O)O)cc1)C(C)=O`, the cell number change turned out to be 33.6%. `COc1ccc(N2CCN(C(=O)COC(=O)COc3ccc(C#N)cc3)CC2)cc1`: the cell number change is -8.46%. For the same molecule, the AC50 under setting [1] was 23.1 µM [falling, partial curve].

With `COc1ccc(NC(=O)COC(=O)c2cccc(S(=O)(=O)N3CCCCC3)c2)c(OC)c1`, the cell number change is -6.59%. Also, the AC50 under setting [1] was 6.51 µM [falling, single point]. Take `CCOC(=O)C1CCN(S(=O)(=O)CCNC(=O)c2ccc(F)cc2)CC1`: the cell number change is -5.98%. For the same molecule, the AC50 under setting [1] is 9.2 µM [falling, partial curve, poor fit]. Consider `Cc1ccc(/C=N\NC(=O)COc2ccc(C)cc2[N+](=O)[O-])cc1`, for which the AC50 under setting [1] was 0.731 µM [rising, full curve, poor fit]. On to `CCOC(=O)c1sc(C)c2c(=O)n(CC)nnc12`, for which the cell number change stood at 58.6%. Under setting [2], the AC50 was 23.1 µM [rising, single point]. Moreover, the AC50 under setting [1] is 0.651 µM [rising, single point].

As for `CCc1ccc(OCc2cccc(C(=O)N/N=C\c3cnn(C)c3C)c2)cc1`, the cell number change was -32%. Further, the AC50 under setting [2] was 25.9 µM [falling, single point]. The AC50 under setting [1] is 4.11 µM [falling, single point]. Take `O=C(O)/C=C\c1cccc(-n2nnnc2SCc2ccccc2F)c1`: the cell number change is -21.1%. For the same molecule, the AC50 under setting [2] was 0.146 µM [falling, full curve, poor fit].

As to `CN(C)c1nc(N2CCN(c3ccccc3)CC2)c(C#N)c(=O)o1`, the AC50 is 1.64 µM [rising, partial curve] under setting [2] and 1.84 µM [rising, partial curve] under setting [1]. For `O=C(CSC1=NCCS1)Nc1ccnc2ccccc12`, the cell number change was -145%. Besides, the AC50 under setting [1] was 29.1 µM [falling, single point].

With `Cc1ccc(CNC(=O)c2c(C)cc(=O)oc2C)cc1`, the AC50 under setting [1] is 2.06 µM [rising, partial curve]. As for `Cc1ccc2c(c1)N(CCC(=O)NCc1cccnc1)C(=O)CO2`, the cell number change is -26.2%. The concentration at half-maximal activity (AC50) under setting [2] is 0.00461 µM [falling, full curve, poor fit].

For `Cc1ccc[n+](/C(C(=S)NCc2ccco2)=C(/[O-])c2ccccc2Cl)c1`, the AC50 under setting [1] is 6.51 µM [falling, partial curve]. Consider `CCc1nc(SCC(=O)N2CCCCCC2)c2c(=O)n(C)c(=O)n(C)c2n1`, for which the cell number change was -31.1%. The AC50 under setting [2] was 0.58 µM [falling, full curve]. The AC50 under setting [1] was 0.731 µM [falling, full curve]. `CC1CCN(C(=O)CCc2nc3cc(S(=O)(=O)N(C)C)ccc3n2C)CC1`: the cell number change was -9.87%. Moreover, the AC50 under setting [1] is 6.51 µM [rising, single point].

With `COCCN(C(=S)Nc1ccccc1C)C(C)c1cccnc1` (stereo not drawn), the AC50 reads like this: under setting [2], 3.66 µM [rising, partial curve]; under setting [1], 4.11 µM [rising, partial curve]. Regarding `CCC/C=C(\CCC)C(NC(=O)OCC(C)C)c1ccc(C(=O)OC)cc1` (stereo not drawn), the cell number change worked out at 23.7%. Further, under setting [1], the AC50 is 16.4 µM [rising, partial curve].

On to `CC(=O)c1c(N2CCN(Cc3ccccc3)CC2)nc(=S)n(-c2ccccc2)c1C`, for which the AC50 under setting [2] is 3.66 µM [rising, single point]. Take `CCc1nnc(NC(=O)c2sc3nc4c(cc3c2N)CCCCCC4)s1`: the cell number change is -66.5%. Further, under setting [2], the AC50 was 11.6 µM [falling, partial curve]. Moreover, the AC50 under setting [1] is 9.2 µM [falling, partial curve]. With `Cc1ccc(S(=O)(=O)NCC(=O)N(CC(=O)NCc2ccco2)Cc2ccc3c(c2)OCO3)cc1`, the cell number change is -17.2%. Also, the AC50 under setting [1] is 4.61 µM [rising, partial curve]. As to `CCOC(=O)c1[nH]cnc1C(=O)Nc1ccc(C)cc1`, the cell number change is 20.4%. Also, under setting [1], the half-maximal activity concentration (AC50) is 0.164 µM [rising, full curve, poor fit]. Consider `CCOC(=O)CNC(=O)C1(/C=C/c2ccccc2)CC(=O)N1c1ccc(C)cc1` (stereo not drawn), for which the cell number change is -5.56%.

Turning to `CCOC(=O)N1CCC(NS(=O)(=O)c2cc(Br)cc3c2N(C(=O)CC)CC3)CC1`, the cell number change was -7.57%.

Regarding `COc1ccc(N2C(=O)CCC(C(=O)Nc3ccccn3)C2c2ccc(OC)c(OC)c2)cc1` (stereo not drawn), the cell number change is 32.4%. Further, the AC50 under setting [2] was 1.3 µM [rising, full curve, poor fit]. Moreover, the AC50 under setting [1] is 20.6 µM [rising, single point]. For `Cc1cccc(C)c1OCC(=O)Nc1ccccc1C(=O)N1CCOCC1`, the cell number change is -9.25%.

As to `CCOc1cccc(C(=O)Nc2cccc(-c3nnc(-c4ccc(C)cc4)o3)c2)c1`, the AC50 under setting [2] was 2.06 µM [falling, single point].

Consider `CSCCC(NS(=O)(=O)c1ccc(Br)cc1)C(=O)OCC(=O)NC1CC1` (stereo not drawn), for which the cell number change was 9.13%. Same read-out and setting: to `N#Cc1cc(C(=O)c2ccccc2O)cn(-c2ccc(Cl)cc2)c1=O` belongs 25.4%. Regarding `Cc1cc(C)n2nc(SCc3nnc(-c4cccs4)o3)nc2n1`, the cell number change came to 29.8%. Under setting [1], the AC50 was 7.31 µM [falling, partial curve, poor fit]. As for `CC(C)Oc1ncnc2c1[nH]c1ccccc12`, the cell number change was -23.5%. In addition, the AC50 under setting [1] is 29.1 µM [falling, single point]. In the case of `O=C(NNc1cccc(Cl)n1)C(F)(F)F`, the cell number change was found to be 15%. For the same molecule, the AC50 under setting [1] is 6.51 µM [falling, single point]. On to `OC1(c2cn(Cc3ccccc3)nn2)CCCCC1`, for which the cell number change was -30.3%. Moreover, the AC50 under setting [2] was 23.1 µM [falling, single point].

In the case of `Cc1cc(NC(=O)CSc2nc3c(cc2C#N)CCC3)no1`, the cell number change turned out to be 19.4%. Also, the AC50 under setting [1] is 29.1 µM [falling, single point].

Turning to `COc1cccc(N2CCN(CC(=O)Nc3ccccc3C(=O)NCc3ccccc3)CC2)c1`, the cell number change is -10.8%. Further, under setting [1], the AC50 was 0.00461 µM [falling, full curve, poor fit].

Consider `CSc1nc2cc(C)nn2c(-c2ccc(C(C)(C)C)cc2)c1C#N`, for which the cell number change turned out to be 22.6%. The AC50 under setting [2] was 2.91 µM [rising, partial curve]. Besides, the AC50 under setting [1] was 1.84 µM [rising, partial curve].

For the molecule `Cc1ccc(C(C[N+](=O)[O-])c2c(-c3ccccc3O)[nH][nH]c2=O)cc1` (stereo not drawn), the cell number change is -32.5%. For the same molecule, under setting [2], the AC50 is 0.0291 µM [falling, full curve]. For the same molecule, the AC50 under setting [1] was 29.1 µM [falling, single point].
